According to publication PMC8494293, “Relief of ParB autoinhibition by parS DNA catalysis and recycling of ParB by CTP hydrolysis promote bacterial centromere assembly” (Science Advances, 2021):
For at least one entry, the source does not settle the construct or the ends of the probe. At least one verdict was read from the data and is not stated in words by the source.

The chains behind the UniProt entries cited, without tags or fusion partners. Where a name states a change or a piece, a line headed by the entry shows the natural chain unless it says otherwise.
UniProt P26497: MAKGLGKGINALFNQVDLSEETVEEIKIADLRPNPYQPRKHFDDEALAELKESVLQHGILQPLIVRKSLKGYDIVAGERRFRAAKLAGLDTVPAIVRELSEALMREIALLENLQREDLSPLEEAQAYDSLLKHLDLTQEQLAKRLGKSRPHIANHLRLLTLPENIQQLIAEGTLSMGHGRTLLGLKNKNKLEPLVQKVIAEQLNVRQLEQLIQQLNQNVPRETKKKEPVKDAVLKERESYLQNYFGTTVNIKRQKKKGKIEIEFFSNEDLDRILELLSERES

What follows are sequences tested against ParB (Bacillus subtilis) (UniProt P26497) (assay: fluorescence anisotropy). Conditions: no notable change in affinity vs parS; recombinant protein.

Binding result, binds:
AGTTGTTCTGTTTCACGAACGTGGAACATCTGGATTACCC (double strand) [parS_4bp (+GAAC)]
AGTTGTTCTGTTTCACGATACGTGGAACATCTGGATTACC (double strand) [parS_5bp (+GATAC)]
GTTGTTCTGTTTCACGATCTACGTGGAACATCTGGATTAC (double strand) [parS_7bp (+GATCTAC)]
GTTGTTCTGTTTCACGATTACGTGGAACATCTGGATTACC (double strand) [parS_6bp (+GATTAC)]
TAGTTGTTCTGTTTCACGACGTGGAACATCTGGATTACCC (double strand) [parS_3bp (+GAC)]
TAGTTGTTCTGTTTCACGCGTGGAACATCTGGATTACCCG (double strand) [parS_2bp (+GC)]
TAGTTGTTCTGTTTCACGGTGGAACATCTGGATTACCCGC (double strand) [parS_1bp (+G)]
TTGTTCTGTTTCACGATCATACGTGGAACATCTGGATTAC (double strand) [parS_8bp (+GATCATAC)]

Same assay, conditions: reference for spacer variants; recombinant protein

Binding result, binds:
TTAGTTGTTCTGTTTCACGTGGAACATCTGGATTACCCGC (double strand) [parS DNA40 (parS-359)]
